Taken from: PubChem BioAssay AID1053208 (Peter MacCallum Cancer Centre, 2014)

Screen: 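Synthetic lethal interactions between gene loss and doxorubicin in osteosarcoma cells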 (primary screen)
Cell system: mouse osteosarcoma cells, early-passage culture from an engineered mouse model of fibroblastic bone tumour
Knock-down reagent: siRNA pool against mouse genes, 40 nM
Duration: about 120 h (48 h before drug, then 72 h with drug)
Conditions: doxorubicin 100 nM for 72 h, roughly 30-40% inhibitory dose
Detection: 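Luminescent ATP signal taken as viability with or without 100 nM doxorubicin for 72 h; mean of two wells set against non-targeting siRNA and turned into robust z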
Direction: viability z-score with doxorubicin: higher = more viable cells under doxorubicin; viability z-score without drug: higher = more viable cells with knock-down alone
Hit rule: 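Called active if knock-down leaves viability unchanged without drug (z within -2 to 2) but lowers it with doxorubicin (z at or under -2)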
The deposit covers about 17,000 reagents; below is a part drawn at random. 788 of all reagents (4.7%) count as active. 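Calls rest on z-score classes alone; an extra cut-off of viability at most 70% of control was not applied to them.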 Not all columns of the deposit are shown.

gene knocked down	combined z-score class	viability z-score with doxorubicin	viability z-score without drug	Call
Trim30d (tripartite motif-containing 30D)	no change with or without drug	-1.12	-0.67	inactive
Kcne3	no change with or without drug	-0.22	0.17	inactive
Trem5 (triggering receptor expressed on myeloid cells 5)	no change with or without drug	-0.67	0.17	inactive
Aqp11 (aquaporin 11)	no change with or without drug	-0.45	-0.51	inactive
Jkampl (JNK1/MAPK8 associated membrane protein like)	high cell count without drug only	0.67	3.2	inactive
Snrpa (small nuclear ribonucleoprotein polypeptide A)	no change with or without drug	1.12	0.51	inactive
Or7g21 (olfactory receptor family 7 subfamily G member 21)	no change with or without drug	-0.9	0.51	inactive
Ssr3 (signal sequence receptor, gamma)	no change with or without drug	-0.22	-1.01	inactive
Tdp1 (tyrosyl-DNA phosphodiesterase 1)	no change with or without drug	0.22	0.51	inactive
Cmtm1 (CKLF-like MARVEL transmembrane domain containing 1)	no change with or without drug	-1.35	-0.17	inactive
Pax7 (paired box 7)	no change with or without drug	-0.34	0	inactive
Hes7 (hes family bHLH transcription factor 7)	no change with or without drug	-0.9	-0.34	inactive
Igf1r (insulin-like growth factor I receptor)	no change with or without drug	0.67	0.84	inactive
Rnf41 (ring finger protein 41)	no change with or without drug	0.34	-0.51	inactive
Actn3 (actinin alpha 3)	no change with or without drug	-0.34	0.67	inactive
Rapsn (receptor-associated protein of the synapse)	no change with or without drug	0.67	0.17	inactive
Vmn1r199 (vomeronasal 1 receptor 199)	no change with or without drug	-0.9	-0.84	inactive
Prdm2 (PR domain containing 2, with ZNF domain)	no change with or without drug	1.46	1.18	inactive
Bckdhb (branched chain ketoacid dehydrogenase E1, beta polypeptide)	no change with or without drug	-0.22	-0.51	inactive
Fam107b (family with sequence similarity 107, member B)	no change with or without drug	-0.11	0.17	inactive

2 entries from above, showing only “combined z-score class”:
Jkampl (JNK1/MAPK8 associated membrane protein like) = high cell count without drug only
Snrpa (small nuclear ribonucleoprotein polypeptide A) = no change with or without drug
